Some peptides are written in HELM: one residue between dots, names in brackets for other building blocks, links after the first $.
Assay: general procedure: hybrid (solid and solution phase) peptide synthesis; Wang resin; 2-chloro-trityl chloride resin; PyBOP; HATU; OSu ester (EDC/HOSu)
Conditions: for conjugation yield: conjugation step

Row | Substance | conjugation yield [%] | also measured
1 | Fm-GABA←-mGly-Ala-Ser-Chg-Gln-Ser-Leu-OH |  | outcome (whole synthesis): could not be achieved following standard automated peptide synthesis methods
2 | Fm-GABA←mGly-Ala-Ser-Chg-OH |  | step yield (coupling step): 56%
3 | Glutaryl-Ser-Ala-Ser-Chg-Gln-Ser-Leu-Dox | 34 | 
4 | PEPTIDE1{[GABA-mGly].A.S.[Chg].Q.S.L.[Dox-3N]}$$$$V2.0 | 28 | 
5 | PEPTIDE1{[GABA-mGly].A.S.[Chg].Q.[NHOCH2CMe2CO].[Dox-14O]}$$$$V2.0 | 18 | 

Source: US11628221B2 (priority 2017, dated 2023)
